Data source: PubChem BioAssay AID602196 (INSERM, 2012)
In all, the deposit lists about 23,000 reagents; shown is a random part of them. Of all reagents, 455 (2%) got an active call. 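Active includes both protection and sensitisation; some change values fall well beyond the stated -50 to +50 range.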 Further read-outs or replicates are left out here. The record does not give: the amount of reagent.

Test: 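Modifiers of cisplatin sensitivity in A549 cells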
Cell system: human A549 lung cancer cells
Reagent: siRNA pair against human genes
Duration: 48 h transfection before cisplatin; time from cisplatin to read-out not stated
Conditions: cisplatin at a dose killing half of control-siRNA cells; exact dose and duration not given
Measured: 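Shift in cisplatin death relative to control siRNA, from -50 (all cells die) to +50 (no cells die); siRNAs harmful on their own scored 0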
Reading the numbers: two-siRNA summed score (-2 to +2): higher = both siRNAs protect from cisplatin killing; -2 means both sensitise
Call rule: 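siRNAs harmful alone (LDH or WST-1) get 0; others get +1 for less and -1 for more cisplatin killing; genes are active when the two siRNAs give the same sign, summing to ±2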
Meaning of the calls: active = both siRNAs shift cisplatin killing the same way; inactive = no consistent shift, or siRNA harmful alone

target gene | PubChem SID | two-siRNA summed score (-2 to +2) | call
EHHADH-AS1 | SID131519647 | 1 | inactive
CCDC33 | SID131509529 | 0 | inactive
DUOXA1 | SID131515515 | 0 | inactive
NEUROD4 | SID131507686 | 0 | inactive
PRKAR2A | SID131508026 | 0 | inactive
CILP2 | SID131516446 | 0 | inactive
AOC2 | SID131522038 | 1 | inactive
NDC1 | SID131516163 | 0 | inactive
LCNL1 | SID131519089 | 1 | inactive
GPR83 | SID131511477 | 0 | inactive
LOC285849 | SID131514834 | 0 | inactive
DDX19A | SID131508518 | 0 | inactive

2 of these entries in another layout:
| target gene | PubChem SID | two-siRNA summed score (-2 to +2) | call |
| --- | --- | --- | --- |
| DUOXA1 | SID131515515 | 0 | inactive |
| NEUROD4 | SID131507686 | 0 | inactive |

Continued:
target gene | PubChem SID | two-siRNA summed score (-2 to +2) | call
YARS2 | SID131507478 | 0 | inactive
FIP1L1 | SID131508737 | 0 | inactive
LOC440236 | SID131523048 | 2 | active
MRPS11 | SID131501792 | -1 | inactive
BPIFC | SID131504847 | 0 | inactive
CYP27C1 | SID131502191 | -1 | inactive
LOC400675 | SID131508358 | 0 | inactive
SRL | SID131510983 | 0 | inactive
MGC35045 | SID131521209 | 1 | inactive
RNF125 | SID131509825 | 0 | inactive
SPPL3 | SID131514954 | 0 | inactive
